From PubChem BioAssay AID2685 (National Center for Advancing Translational Sciences (NCATS), 2010)
Some of the results follow. Shown are side measurements of this screen, not its main read-out; they come without a call. Compounds called inactive in the main read-out are mostly missing here. The note in brackets gives the kind of curve behind each potency; many fits are weak.

Assay: qHTS Assay for Lipid Storage Modulators in Drosophila S3 Cells;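 on cell number change: cells counted by Cell Tracker Red CMTPX staining in the red channel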
Conditions: BODIPY lipid droplet fluorescence, 18-24 h; for cell number change: measured here: cell count max response, cells fed with added oleic acid
In short: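 Laser-scanning cytometry quantifies lipid droplet accumulation (500–530 nm total intensity; droplet/cell object ratio) in oleic acid-fed (400 uM added) Drosophila S3 cells treated with a concentration series. 20 uM Triacsin C defined 100% inhibition.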

[1] = measured here: cell number channel AC50, cells fed with added oleic acid
[2] = measured here: lipid fluorescence (Fed channel) AC50, cells fed with added oleic acid

Compound	AC50 [1]	AC50 [2]	cell number change [%]
Cc1ccc(C(=O)CCNc2ccc(Cl)cc2)o1	0.82 µM [rising, single point]	29.1 µM [rising, single point]	
CCC(CC)COC(=O)C1=C(C)NC(=O)NC1c1ccc([N+](=O)[O-])cc1 (stereo not drawn)		29.1 µM [falling, single point]	-26.4
COc1cc(S(=O)(=O)N2CCCCCC2)ccc1-n1cnnn1		0.291 µM [falling, partial curve, poor fit]	
Cc1ccc(C(=O)c2ccccc2C(=O)OCC(=O)N2C(C)CCCC2C)cc1 (stereo not drawn)		2.59 µM [rising, full curve, poor fit]	15.8
COc1ccccc1C(=O)NCCC(=O)Nc1ccc(S(=O)(=O)N2CC(C)CC(C)C2)cc1 (stereo not drawn)			3.01
O=C(COc1ccc(S(=O)(=O)NCc2ccccc2)cc1Cl)NCC1CCCO1 (stereo not drawn)	20.6 µM [rising, single point]		31
COc1ccc(CC2S/C(=C(\C#N)C(=O)NCc3ccco3)N(c3ccc(C)cc3)C2=O)cc1 (stereo not drawn)		29.1 µM [rising, single point]	2.84
COCCOC1CCN(C(=O)c2ccc(OC)c(OC3CCN(C(C)C)CC3)c2)CC1		6.51 µM [falling, single point]	3.98
COc1cc(C(=O)N2CCN(c3ccccc3Cl)CC2)ccc1OCC(=O)N1CCOCC1		18.4 µM [falling, single point]	1.9
Cc1cccc(NC(=O)C2C3CCCCC32)c1 (stereo not drawn)			0.246
Cc1ccc(-n2ncc3c2CCCC3NC(=O)c2ccccc2N2CCOCC2)cc1C (stereo not drawn)	16.4 µM [falling, single point]		-42.2
COc1ccccc1C1(CC(=O)N2CCOCC2)CCOC(C(C)C)C1 (stereo not drawn)	0.291 µM [rising, full curve]		58.1
CCSC1=C(C#N)C2(CCCCC2)C(C#N)=C(N)N1	13 µM [falling, partial curve]		-57.9
COC(=O)c1cccc(NC(=O)CC2NCCNC2=O)c1 (stereo not drawn)		0.731 µM [falling, full curve, poor fit]	-3.12
CCOC(=O)CNc1ncnc2nc[nH]c12		6.51 µM [falling, single point]	
O=c1c2ccccc2nc2n1CCN2	3.26 µM [falling, single point]		-11.7
COc1ccc(CCNC(=O)C(=O)NCC2OCCN2S(=O)(=O)c2ccc(F)cc2)cc1OC (stereo not drawn)		29.1 µM [falling, single point]	4.9
Cc1ccc(S(=O)(=O)N2CCN(C(=O)Cc3ccc(S(=O)(=O)N4CCOCC4)s3)CC2)cc1	0.00461 µM [rising, full curve, poor fit]		9.91
CC(=O)Nc1c(C#N)c(C(C)(C)C)cn1C		0.731 µM [falling, full curve]	-22
O=C(Cn1c(=O)cnc2ccccc21)NNC(=O)c1ccc(Cl)cc1		29.1 µM [rising, single point]	1.1

Compound	AC50 [1]	AC50 [2]	cell number change [%]
CCN(CC(=O)NCCCN1CCOCC1)S(=O)(=O)c1ccc(F)cc1	0.116 µM [falling, full curve, poor fit]		-31.4
O=C(Nc1ccccc1)c1ccc(OC(=O)c2cc3ccccc3o2)cc1		29.1 µM [falling, single point]	-38.6
O=C(O)c1ccccc1C(=O)NC1CCCCNC1=O (stereo not drawn)	0.116 µM [falling, full curve, poor fit]	0.13 µM [falling, full curve, poor fit]	
O=S(=O)(c1ccc(F)cc1)c1nc(-c2ccccc2)oc1N1CCOCC1	32.6 µM [falling, single point]		-36.6
COc1ccc(CCNC(=O)CN2CCN(c3cccc(C(F)(F)F)c3)CC2)cc1	16.4 µM [rising, single point]	0.82 µM [falling, full curve]	61.7
Cc1ccc2oc(C(=O)Nc3cc(C)on3)c(C)c2c1		0.517 µM [rising, full curve]	-2.01
COc1ccc(S(=O)(=O)N2CCCCC2)cc1NC(=O)c1ccc(N2CCCC2=O)cc1		0.82 µM [rising, full curve, poor fit]	0.937
Cc1ccc(Sc2ncccc2COC(=O)NC(C)C)cc1	14.6 µM [rising, partial curve]	1.3 µM [rising, partial curve]	99.8
CC(C)(C)N(Cc1ccccc1)C(=O)c1ccncc1			15.5
Cn1cccc1/C=N/NC(=O)c1ccc(OC(F)(F)C(F)F)cc1	4.61 µM [rising, partial curve, poor fit]		40.1
COc1ccc(/C(N)=N/OC(=O)Oc2ccccc2)cc1	7.31 µM [falling, partial curve, poor fit]	2.91 µM [falling, partial curve]	-78.6
CC(=O)c1ccc(NC(=O)COc2ccccc2C(=O)Nc2ccccc2)cc1	29.1 µM [falling, single point]	29.1 µM [falling, single point]	-41.6
C[C@@H](NC(=O)[C@@H]1Cc2ccccc2CN1C(=O)OC(C)(C)C)C(=O)NC1CCCC1		29.1 µM [falling, single point]	-24.2
CCCCCOC(=O)Nc1nnc(CCCCC)s1		6.51 µM [falling, single point]	
CCN1C(=O)c2cccc3c(S(=O)(=O)NCc4ccccc4)ccc1c23	20.6 µM [falling, single point]	20.6 µM [falling, single point]	-37.9
CC(=O)N1CCN(Cc2nc(-c3cccc(Cl)c3)no2)CC1			24.2
CC(NC(=S)Nc1ccc(OC(F)F)cc1OC(F)F)C(C)(C)C (stereo not drawn)			-16.1
COC(=O)CNc1nc(Cl)nc(Nc2ccc(Cl)cc2)n1	4.61 µM [falling, full curve, poor fit]	6.51 µM [falling, full curve]	-37.1
CCC(C)c1ccccc1NC(=O)CN(C)CCOc1ccc(Cl)cc1 (stereo not drawn)			16.7
CCCCCCCCO		0.92 µM [rising, single point]	10.7

By substructure, the compounds so far with a cyano group.
Compound	AC50 [1]	AC50 [2]	cell number change [%]
COc1ccc(CC2S/C(=C(\C#N)C(=O)NCc3ccco3)N(c3ccc(C)cc3)C2=O)cc1 (stereo not drawn)		29.1 µM [rising, single point]	2.84
CCSC1=C(C#N)C2(CCCCC2)C(C#N)=C(N)N1	13 µM [falling, partial curve]		-57.9
CC(=O)Nc1c(C#N)c(C(C)(C)C)cn1C		0.731 µM [falling, full curve]	-22

(listing goes on)

Compound	AC50 [1]	AC50 [2]	cell number change [%]
Cc1ccc(/C=N/NC(=O)c2nnn(-c3nonc3N)c2CSc2ccccc2)cc1	0.0058 µM [rising, full curve, poor fit]	0.184 µM [rising, full curve, poor fit]	14.4
CCn1c(Cc2cccs2)nnc1SCC(=O)Nc1ccc(OC)c(OC)c1		0.651 µM [rising, full curve, poor fit]	1.23
O=C(Cn1nc(-c2ccccc2F)ccc1=O)NCc1ccc2c(c1)OCO2	0.82 µM [rising, partial curve]	0.259 µM [rising, full curve]	13.5
CC(C)c1ccc(NC2CCCN(C(=O)c3cccs3)C2)cc1 (stereo not drawn)		29.1 µM [falling, single point]	5.2
Cc1ccc(-n2nnnc2-c2cnn(-c3ccc(F)cc3)c2C(F)(F)F)cc1		20.6 µM [falling, partial curve]	-24.8
Cc1cnc(=O)[nH]c1SCc1cccc(C(F)(F)F)c1		1.3 µM [rising, full curve, poor fit]	-19.1
COc1cccc(NS(=O)(=O)c2c(C)cc(C)cc2C)c1	29.1 µM [falling, single point]	29.1 µM [falling, single point]	-54.9
C(=C\c1ccccc1)/CSc1nnc(-c2ccncc2)n1Cc1ccco1	0.731 µM [rising, full curve, poor fit]		22.8
OCCNCCCOc1cc(Cl)ccc1Cl			42.4
Cc1cccnc1NC(=O)c1ccc(S(=O)(=O)N2CCC(C)CC2)cc1	16.4 µM [rising, single point]		47.6
COCCNC(=O)/C(C#N)=C1\N=C(N)c2ccccc21	1.84 µM [falling, partial curve]	6.51 µM [rising, partial curve, poor fit]	-33.3
O=C(c1cc(COc2ccc(F)cc2Cl)on1)N1CC[C@@H]2CCCC[C@H]2C1		7.31 µM [falling, partial curve]	-9.83
COC(=O)c1ccc2c(=O)[nH]c(COC(=O)c3cccc(S(=O)(=O)N4CCOCC4)c3)nc2c1	0.461 µM [falling, full curve, poor fit]	0.517 µM [falling, full curve]	-14.3
CCc1ccc(Nc2nnc(SCC(=O)Nc3cccc(S(=O)(=O)NC4=NCCCCC4)c3)s2)cc1	9.2 µM [falling, partial curve, poor fit]	32.6 µM [falling, single point]	-100
CCc1nnc(NC(=O)CN2CCOCC2)s1		0.146 µM [falling, full curve, poor fit]	-10.2
CC(C)NC(=O)c1ccc(S(=O)(=O)N(C)C)cc1			-48.7
CC(C)(CCl)C(=O)Nc1ccc(C(F)(F)F)cc1	2.59 µM [falling, partial curve]	2.59 µM [falling, partial curve, poor fit]	3.26
COc1ccc(S(=O)(=O)N2CCC(NC(=O)c3cccnc3)CC2)cc1		0.103 µM [falling, partial curve, poor fit]	-16.7
